This note sets out measurements from paper PMC12152620.

These are yes or no findings as the source states them, for the method shown. For some assays here: In cells and extracts the contact can be indirect. Some results given as binding are weak or reduced against the parent protein; the word gives no strength. Sequences can lack the tags named with a protein.

Assay [1] has as its target T1, His-tagged Rsa1p (S. cerevisiae) (UniProt Q08932).
T1 sequence: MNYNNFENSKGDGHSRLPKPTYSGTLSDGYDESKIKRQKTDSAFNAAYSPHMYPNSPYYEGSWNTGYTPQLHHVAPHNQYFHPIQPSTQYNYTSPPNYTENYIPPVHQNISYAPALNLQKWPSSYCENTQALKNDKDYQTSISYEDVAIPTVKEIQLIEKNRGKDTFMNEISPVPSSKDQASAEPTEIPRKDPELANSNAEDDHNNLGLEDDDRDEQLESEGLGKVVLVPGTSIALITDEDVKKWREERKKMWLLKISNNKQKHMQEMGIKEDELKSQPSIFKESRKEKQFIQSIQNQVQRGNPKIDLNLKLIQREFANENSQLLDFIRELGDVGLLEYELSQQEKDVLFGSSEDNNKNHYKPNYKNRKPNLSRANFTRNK
Briefly: co-purification (Ni-NTA); Rsa1p and Hit1p co-expressed in E. coli; lysate in 20 mM Tris-HCl pH 7.5, 500 mM NaCl, 20 mM imidazole applied to Ni-NTA; eluted with 250 mM imidazole.

Assay [2] deals with T2, His-tagged Rsa1p complexed with Hit1p (S. cerevisiae) (UniProt Q08932+P46973).
T2 sequence 1: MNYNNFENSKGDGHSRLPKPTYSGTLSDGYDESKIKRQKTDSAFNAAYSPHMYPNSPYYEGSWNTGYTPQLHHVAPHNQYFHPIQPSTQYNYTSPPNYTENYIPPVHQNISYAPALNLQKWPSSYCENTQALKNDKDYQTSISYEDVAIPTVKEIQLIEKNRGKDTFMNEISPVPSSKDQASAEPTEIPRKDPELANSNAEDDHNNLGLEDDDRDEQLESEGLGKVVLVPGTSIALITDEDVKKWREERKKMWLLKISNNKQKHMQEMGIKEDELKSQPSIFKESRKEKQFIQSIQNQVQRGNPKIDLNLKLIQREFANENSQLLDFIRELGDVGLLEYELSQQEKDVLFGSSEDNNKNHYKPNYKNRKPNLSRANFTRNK
T2 sequence 2: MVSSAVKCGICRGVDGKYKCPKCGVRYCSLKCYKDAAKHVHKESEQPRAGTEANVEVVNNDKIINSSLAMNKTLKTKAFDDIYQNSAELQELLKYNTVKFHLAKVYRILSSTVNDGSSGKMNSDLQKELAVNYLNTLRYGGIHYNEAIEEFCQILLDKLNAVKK
Kind of assay: pull-down; His-tagged Rsa1p (purified as a complex with Hit1p) on Dynabeads His-Tag magnetic beads, incubated with E. coli lysate containing FLAG-tagged Atg8p overnight at 4 °C; washed 4 times with 50 mM Na3PO4, 300 mM NaCl, 0.1% Triton X-100; eluted with 300 mM imidazole; Western blotting with anti-His-tag and anti-FLAG-tag antibodies; only the target purified.

B1: Hit1p (protein, UniProt P46973 1-164)
chain: MVSSAVKCGICRGVDGKYKCPKCGVRYCSLKCYKDAAKHVHKESEQPRAGTEANVEVVNNDKIINSSLAMNKTLKTKAFDDIYQNSAELQELLKYNTVKFHLAKVYRILSSTVNDGSSGKMNSDLQKELAVNYLNTLRYGGIHYNEAIEEFCQILLDKLNAVKK
Regarding B1, in assay [1], the binding entry is “binds”.

B2: FLAG-tagged Atg8p (protein, UniProt P38182 1-117)
chain: MKSTFKSEYPFEKRKAESERIADRFKNRIPVICEKAEKSDIPEIDKRKYLVPADLTVGQFVYVIRKRIMLPPEKAIFIFVNDTLPPTAALMSAIYQEHKDKDGFLYVTYSGENTFGR
On to B2, for which the binding entry in assay [2] was “binds”.
